These are yes or no findings as the source states them, for the method shown. In cells and extracts the contact can be indirect. Some binding calls cover weakened binding; strength is not graded here.
Biological target: glucocorticoid receptor (GR) (human (endogenous in HASM cells)) (UniProt P04150)
Test: co-IP; anti-GR rabbit IgG on Protein G Dynabeads, native conditions, 2 h at 4°C, eluted at pH 3.0; nuclear extracts of HASM cells, unstimulated or treated with IL-13, DEX or IL-13+DEX, with or without pretreatment with U0126, SP600125 or SB202190; immunoblot for MED14 and phospho-GR Ser211

Protein sequences, listed by entry. Tags and fused reporters are not part of them.
UniProt P04150: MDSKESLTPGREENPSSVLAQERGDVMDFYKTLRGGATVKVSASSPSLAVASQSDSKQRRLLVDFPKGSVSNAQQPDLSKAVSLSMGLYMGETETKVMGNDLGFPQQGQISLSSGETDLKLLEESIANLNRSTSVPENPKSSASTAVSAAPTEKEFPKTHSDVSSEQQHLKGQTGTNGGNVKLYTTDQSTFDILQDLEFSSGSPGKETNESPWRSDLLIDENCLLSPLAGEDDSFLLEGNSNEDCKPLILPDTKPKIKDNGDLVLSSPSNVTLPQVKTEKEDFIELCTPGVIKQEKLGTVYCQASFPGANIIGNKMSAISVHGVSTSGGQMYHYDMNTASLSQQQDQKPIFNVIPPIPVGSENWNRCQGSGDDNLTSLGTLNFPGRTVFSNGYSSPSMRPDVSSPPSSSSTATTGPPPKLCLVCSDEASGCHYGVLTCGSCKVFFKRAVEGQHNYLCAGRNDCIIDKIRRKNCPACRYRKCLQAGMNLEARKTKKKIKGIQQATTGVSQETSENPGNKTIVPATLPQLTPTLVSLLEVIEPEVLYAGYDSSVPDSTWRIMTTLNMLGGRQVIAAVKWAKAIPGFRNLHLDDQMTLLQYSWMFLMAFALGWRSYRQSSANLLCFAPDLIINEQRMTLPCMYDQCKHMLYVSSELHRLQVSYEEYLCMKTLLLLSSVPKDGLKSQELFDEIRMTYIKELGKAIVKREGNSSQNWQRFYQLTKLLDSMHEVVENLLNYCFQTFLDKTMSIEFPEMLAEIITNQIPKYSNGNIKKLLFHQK
UniProt O60244: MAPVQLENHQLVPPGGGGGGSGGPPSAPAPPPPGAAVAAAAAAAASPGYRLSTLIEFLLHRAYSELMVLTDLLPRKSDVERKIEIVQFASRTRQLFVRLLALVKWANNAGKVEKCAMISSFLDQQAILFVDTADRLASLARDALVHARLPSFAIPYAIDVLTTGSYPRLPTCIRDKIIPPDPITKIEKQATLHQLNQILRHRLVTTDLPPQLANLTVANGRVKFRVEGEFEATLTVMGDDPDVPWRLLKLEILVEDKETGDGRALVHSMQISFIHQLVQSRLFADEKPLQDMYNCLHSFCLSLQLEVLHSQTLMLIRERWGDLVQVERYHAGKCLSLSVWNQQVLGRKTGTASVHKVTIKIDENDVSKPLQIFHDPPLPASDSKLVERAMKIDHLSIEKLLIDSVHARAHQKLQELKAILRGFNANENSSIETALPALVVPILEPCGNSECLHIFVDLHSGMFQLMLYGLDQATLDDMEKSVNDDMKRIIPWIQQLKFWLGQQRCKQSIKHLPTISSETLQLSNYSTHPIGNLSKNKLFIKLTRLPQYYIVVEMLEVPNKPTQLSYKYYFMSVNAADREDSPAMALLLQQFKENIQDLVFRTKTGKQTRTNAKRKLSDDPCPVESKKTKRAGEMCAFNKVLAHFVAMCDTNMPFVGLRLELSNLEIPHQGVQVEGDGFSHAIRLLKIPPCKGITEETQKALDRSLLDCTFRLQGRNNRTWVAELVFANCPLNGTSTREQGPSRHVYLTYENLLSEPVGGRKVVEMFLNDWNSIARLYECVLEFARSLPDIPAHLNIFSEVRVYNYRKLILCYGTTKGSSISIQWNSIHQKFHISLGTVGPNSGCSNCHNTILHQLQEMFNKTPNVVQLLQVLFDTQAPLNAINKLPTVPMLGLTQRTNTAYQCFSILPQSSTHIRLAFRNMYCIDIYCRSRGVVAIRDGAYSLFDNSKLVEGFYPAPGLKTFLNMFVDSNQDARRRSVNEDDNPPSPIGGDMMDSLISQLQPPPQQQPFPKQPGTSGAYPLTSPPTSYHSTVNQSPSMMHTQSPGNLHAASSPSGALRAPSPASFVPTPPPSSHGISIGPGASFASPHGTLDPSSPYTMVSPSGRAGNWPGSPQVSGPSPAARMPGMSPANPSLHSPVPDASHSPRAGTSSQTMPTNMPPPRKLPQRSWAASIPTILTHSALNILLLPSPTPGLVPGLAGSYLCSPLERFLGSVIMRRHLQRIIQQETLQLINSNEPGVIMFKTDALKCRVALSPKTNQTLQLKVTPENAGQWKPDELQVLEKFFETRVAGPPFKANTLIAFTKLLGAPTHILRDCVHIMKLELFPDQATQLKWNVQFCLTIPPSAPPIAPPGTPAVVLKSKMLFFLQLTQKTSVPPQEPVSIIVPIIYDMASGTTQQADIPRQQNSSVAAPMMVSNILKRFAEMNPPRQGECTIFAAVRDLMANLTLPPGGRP

For MED14 (from UniProt O60244 1-1454), the binding was “binds”.
